Reference: PubChem BioAssay (NCATS)
The shares of active, inactive and inconclusive entries below differ from those in the screen. A potency beside an inconclusive call is a rough fit, not a confirmed value. Active and inactive are the calls of the source. The call rests on the fitted dose curve; in most records, active means well fitted cell-killing curve with a large enough effect; inconclusive means small, poorly fitted or top-dose-only effect, or effect the other way; inactive means no such curve, though single readings can be large or run the other way.

Assays:
[1] = Quantitative High-Throughput drug screen in 47 multiple myeloma cell lines against the NCATS MIPE library collection: L363_DSMZ cell viability assay (AID 1918984); settings: L363 myeloma viability, CellTiter-Glo ATP luminescence, 48 h; viability (% of control): at 45.8 µM (top of the series); further: nearly all actives have a fitted effect of over 40% in size
Method in brief: (§1)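 Myeloma cells (500/well) treated with MIPE 4.0 compounds for 48 h at 37 °C, 5% CO2. Viability read as ATP via CellTiter-Glo luminescence after 5 min at RT; DMSO-only wells = 100%, media-only = 0% viability.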

[2] = Quantitative High-Throughput drug screen in 47 multiple myeloma cell lines against the NCATS MIPE library collection: KMS34_JCRB cell viability assay (AID 1918985); settings: KMS34 myeloma viability, CellTiter-Glo ATP luminescence, 48 h; viability, percent of control: at 45.8 µM (top of the series); further: nearly all actives have a fitted effect of over 40% in size
Method in brief: as §1

[3] = Quantitative High-Throughput drug screen in 47 multiple myeloma cell lines against the NCATS MIPE library collection: OCIMY7_PLB cell viability assay (AID 1918987); settings: OCI-MY7 myeloma viability, CellTiter-Glo ATP, 48 h; viability (% of DMSO): at 45.8 µM (top of the series); further: nearly all actives have a fitted effect of over 65% in size
Method in brief: as §1

[4] = Quantitative High-Throughput drug screen in 47 multiple myeloma cell lines against the NCATS MIPE library collection: OCIMY5_PLB cell viability assay (AID 1918988); settings: OCI-MY5 myeloma viability, ATP luminescence, 48 h; viability, % of control: at 45.8 µM (top of the series); further: nearly all actives have a fitted effect of over 65% in size
Method in brief: as §1

[5] = Quantitative High-Throughput drug screen in 47 multiple myeloma cell lines against the NCATS MIPE library collection: SKMM1_PLB cell viability assay (AID 1919863); settings: SKMM1 myeloma viability, CellTiter-Glo ATP, 48 h; viability: stronger effect = lower value; further: nearly all actives have a fitted effect of over 35% in size
Method in brief: as §1

[6] = Quantitative High-Throughput drug screen in 47 multiple myeloma cell lines against the NCATS MIPE library collection: U266_ATCC cell viability assay (AID 1919864); further: nearly all actives have a fitted effect of over 35% in size
Method in brief: as §1

[7] = Quantitative High-Throughput drug screen in 47 multiple myeloma cell lines against the NCATS MIPE library collection: XG1_PLB cell viability assay (AID 1919866); further: nearly all actives have a fitted effect of over 35% in size
Method in brief: as §1

[8] = Quantitative High-Throughput drug screen in 47 multiple myeloma cell lines against the NCATS MIPE library collection: VP6_DJ cell viability assay (AID 1919867); settings: ATP luminescence, 48 h; viability (% of DMSO): at 45.8 µM (top of the series); further: nearly all actives have a fitted effect of over 40% in size
Method in brief: as §1

[9] = Quantitative High-Throughput drug screen in 47 multiple myeloma cell lines against the NCATS MIPE library collection: XG6_PLB cell viability assay (AID 1919865); settings: XG6 myeloma viability, CellTiter-Glo ATP luminescence, 48 h; viability (% of control): at 45.8 µM (top of the series); further: nearly all actives have a fitted effect of over 40% in size
Method in brief: as §1
Potency means the concentration at half of the fitted maximal effect.

Row | SMILES | Potency [1] | Potency [2] | Potency [3] | Potency [4] | Potency [5] | Potency [6] | Potency [7] | Potency [8] | Potency [9] | viability [5]
1 | CN[C@@H](C)[C@H]1[C@H](O)C[C@@]2(C)[C@@H]3CC[C@H]4C(C)(C)[C@@H](NC)CC[C@@]45C[C@@]35CC[C@]12C | inactive | inactive | inconclusive: 0.0662 µM [rising, full curve, poor fit] | inconclusive: 0.0042 µM [rising, full curve, poor fit] | inconclusive: 18.7 µM [cytotoxic, partial curve, poor fit] | inactive | inconclusive: 33.2 µM [cytotoxic, single point] | inconclusive: 5.26 µM [cytotoxic, partial curve, poor fit] | – | –
2 | O=C(O)C=Cc1ccc(Cn2ccnc2)cc1 | inconclusive: 23.5 µM [cytotoxic, partial curve, poor fit] | inactive | inconclusive: 2.96 µM [cytotoxic, full curve, poor fit] | inconclusive: 14.8 µM [cytotoxic, partial curve, poor fit] | inconclusive: 0.001 µM [cytotoxic] | inactive | inactive | inactive | inactive | –
3 | CNC(=O)c1ccc2cc(C3(O)CCn4cncc43)ccc2c1 (configuration not stated) | inconclusive: 0.118 µM [cytotoxic, full curve, poor fit] | inconclusive: 3.32 µM [cytotoxic, full curve, poor fit] | inconclusive: 4.18 µM [cytotoxic, partial curve, poor fit] | inconclusive: 23.5 µM [cytotoxic, single point] | inconclusive: 3.32 µM [cytotoxic, full curve, poor fit] | inconclusive: 37.2 µM [cytotoxic, single point] | – | inactive | inconclusive: 5.9 µM [cytotoxic, partial curve, poor fit] | –
4 | S=c1nc[nH]c2nc[nH]c12 | inconclusive: 14.8 µM [cytotoxic, partial curve, poor fit] | inconclusive: 2.96 µM [cytotoxic, full curve] | inconclusive: 20.9 µM [cytotoxic, partial curve, poor fit] | inconclusive: 0.001 µM | – | inconclusive: 18.7 µM [cytotoxic, partial curve, poor fit] | – | – | – | inactive: 104%
5 | CCOC(=O)C(C)(C)Oc1ccc(Cl)cc1 | inconclusive: 37.2 µM [cytotoxic, single point] | inconclusive: 0.0013 µM [cytotoxic, full curve, poor fit] | inconclusive: 0.118 µM [rising, full curve, poor fit] | inactive | – | inactive | inconclusive: 0.0037 µM [cytotoxic, full curve, poor fit] | inconclusive: 0.935 µM [cytotoxic, full curve, poor fit] | inconclusive: 1.05 µM [cytotoxic, full curve, poor fit] | inactive: 104%
6 | CCCCC(C)(C)[C@H](O)C=C[C@H]1[C@H](O)CC(=O)[C@H]1CC=CCCCC(=O)O | inconclusive: 0.0662 µM [cytotoxic, full curve, poor fit] | active: 5.9 µM | inconclusive: 7.43 µM [cytotoxic, partial curve, poor fit] | inconclusive: 11.8 µM [rising, partial curve, poor fit] | inconclusive: 20.9 µM [cytotoxic, partial curve, poor fit] | active: 13.2 µM | inconclusive: 33.2 µM [cytotoxic, single point] | inconclusive: 33.2 µM [cytotoxic, single point] | – | –
7 | CCC(=O)OCC(=O)[C@@]1(OC(=O)CC)[C@@H](C)C[C@@H]2[C@H]3CCC4=CC(=O)C=C[C@]4(C)[C@@]3(F)[C@@H](O)C[C@@]21C | active: 1.05 µM | inconclusive: 0.0296 µM [cytotoxic, full curve, poor fit] | inconclusive: 18.7 µM [cytotoxic, partial curve, poor fit] | inconclusive: 20.9 µM [cytotoxic, partial curve, poor fit] | – | inactive | inconclusive: 8.33 µM [cytotoxic, full curve] | active: 11.8 µM | – | inactive: 97.1%
8 | COc1ccc(Cc2ccc(NC(N)=O)cc2)cc1-c1cccc(Cl)c1 | inconclusive: 0.0042 µM [rising, full curve, poor fit] | inactive | inconclusive: 16.6 µM [cytotoxic, partial curve, poor fit] | inconclusive: 26.4 µM [cytotoxic, single point] | inconclusive: 37.2 µM [cytotoxic, single point] | active: 8.33 µM | – | inconclusive: 0.0833 µM [cytotoxic, full curve, poor fit] | inconclusive: 13.2 µM [cytotoxic, partial curve, poor fit] | –
9 | COc1ccc(-c2c(-c3ccc(O)cc3O)n[nH]c2C)cc1 | inconclusive: 34 µM [cytotoxic, partial curve] | inactive | inconclusive: 30.3 µM [cytotoxic, partial curve, poor fit] | inconclusive: 38.2 µM [cytotoxic, partial curve, poor fit] | – | inactive | inconclusive: 34 µM [cytotoxic, partial curve] | – | inconclusive: 42.9 µM [cytotoxic, partial curve] | inactive: 137%
10 | CN(C)C(=N)N=C(N)N | inconclusive: 0.059 µM [cytotoxic, full curve, poor fit] | inconclusive: 0.059 µM [rising, full curve, poor fit] | inactive | inconclusive: 0.0296 µM [rising, full curve, poor fit] | – | inactive | inconclusive: 0.0118 µM [cytotoxic, full curve, poor fit] | inactive | inconclusive: 0.118 µM [cytotoxic, full curve, poor fit] | inactive: 138%
11 | Cc1cccc(-c2nn(C(=S)Nc3ccccc3)cc2-c2ccnc3ccccc23)n1 | inconclusive: 0.833 µM [cytotoxic, full curve, poor fit] | inconclusive: 37.2 µM [cytotoxic, single point] | inconclusive: 0.0526 µM [rising, full curve, poor fit] | active: 1.48 µM | inconclusive: 13.2 µM [cytotoxic, partial curve, poor fit] | inconclusive: 14.8 µM [cytotoxic, partial curve, poor fit] | inconclusive: 1.18 µM [cytotoxic, full curve, poor fit] | – | inactive | –
12 | CC1(C)[C@H](C(=O)O)N2C(=O)C[C@H]2S1(=O)=O | inactive | inconclusive: 0.0013 µM [cytotoxic, full curve, poor fit] | inconclusive: 1.32 µM [cytotoxic, full curve, poor fit] | inconclusive: 0.0935 µM [rising, full curve, poor fit] | – | inconclusive: 13.2 µM [cytotoxic, partial curve, poor fit] | inconclusive: 0.59 µM [cytotoxic, full curve, poor fit] | inactive | inactive | inactive: 120%
13 | Nc1ccn([C@@H]2O[C@H](CO)[C@@H](O)[C@H]2O)c(=O)n1 | inactive | inconclusive: 0.0083 µM [cytotoxic, full curve, poor fit] | inconclusive: 0.0047 µM [cytotoxic, full curve] | inactive | – | inconclusive: 0.0021 µM [rising, full curve, poor fit] | – | inconclusive: 0.105 µM [cytotoxic, full curve, poor fit] | inconclusive: 1.66 µM [cytotoxic, full curve, poor fit] | inactive: 113%
14 | Cn1c(N2CCCCS2(=O)=O)nc(C(=O)NCc2ccc(F)cc2)c(O)c1=O | inconclusive: 0.59 µM [cytotoxic, partial curve, poor fit] | inactive | inconclusive: 0.0047 µM [cytotoxic, full curve, poor fit] | inconclusive: 33.2 µM [cytotoxic, partial curve, poor fit] | – | inconclusive: 37.2 µM [cytotoxic, single point] | inactive | inactive | – | inactive: 112%
15 | CCNC(=O)Nc1ccc2ncc(Nc3ccc(C)cc3)nc2n1 | inconclusive: 2.09 µM [cytotoxic, full curve, poor fit] | inconclusive: 10.5 µM [cytotoxic, partial curve, poor fit] | inconclusive: 1.48 µM [cytotoxic, full curve, poor fit] | inconclusive: 18.7 µM [cytotoxic, partial curve, poor fit] | – | inconclusive: 1.05 µM [cytotoxic, full curve] | active: 0.332 µM | – | inconclusive: 0.0332 µM [cytotoxic, full curve, poor fit] | inactive: 139%
16 | O=C1c2c(O)cc(O)cc2OC(c2ccc(O)c(O)c2)C1O (configuration not stated) | inconclusive: 0.0026 µM [rising, full curve, poor fit] | inconclusive: 14.8 µM [cytotoxic, partial curve, poor fit] | active: 14.8 µM | inactive | inconclusive: 2.64 µM [rising, full curve] | – | – | inactive | inconclusive: 29.6 µM [cytotoxic, single point] | –
17 | Cc1nc(C(=O)NCC(=O)O)c(O)c2ccc(Oc3ccccc3)cc12 | inactive | inconclusive: 33.2 µM [cytotoxic, single point] | inactive | inactive | – | inconclusive: 0.0526 µM [cytotoxic, full curve, poor fit] | inconclusive: 1.18 µM [cytotoxic, full curve, poor fit] | inconclusive: 0.003 µM [rising, full curve, poor fit] | inconclusive: 33.2 µM [cytotoxic, single point] | –

Full records as entered above. Order of values: Potency [1] | Potency [2] | Potency [3] | Potency [4] | Potency [5] | Potency [6] | Potency [7] | Potency [8] | Potency [9] | viability [5]
CCCCC(C)(C)[C@H](O)C=C[C@H]1[C@H](O)CC(=O)[C@H]1CC=CCCCC(=O)O is listed with inconclusive: 0.0662 µM [cytotoxic, full curve, poor fit] | active: 5.9 µM | inconclusive: 7.43 µM [cytotoxic, partial curve, poor fit] | inconclusive: 11.8 µM [rising, partial curve, poor fit] | inconclusive: 20.9 µM [cytotoxic, partial curve, poor fit] | active: 13.2 µM | inconclusive: 33.2 µM [cytotoxic, single point] | inconclusive: 33.2 µM [cytotoxic, single point] | – | –
CN(C)C(=N)N=C(N)N is listed with inconclusive: 0.059 µM [cytotoxic, full curve, poor fit] | inconclusive: 0.059 µM [rising, full curve, poor fit] | inactive | inconclusive: 0.0296 µM [rising, full curve, poor fit] | – | inactive | inconclusive: 0.0118 µM [cytotoxic, full curve, poor fit] | inactive | inconclusive: 0.118 µM [cytotoxic, full curve, poor fit] | inactive: 138%
